Measurements from the supplement of paper PMC10331698.
± gives the standard deviation of the averaged measurements. Most values lie at the level of the controls, where differences are scatter.

Columns and labels:
Test in all cases: level (log10 ratio to DMSO vehicle control); higher = higher biomarker level / cell amount than vehicle control
[1] = compound: O=C(O)C(F)(F)C(F)(F)C(F)(F)C(F)(F)C(=O)O [Octafluoroadipic acid]; conditions: 2200 nM; in DMSO
Protocol: (§1)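 BioMAP Diversity Plus panel of 12 human primary cell co-culture systems (3C, 4H, LPS, SAg, BT, BF4T, BE3C, CASM3C, HDF3CGF, KF3CT, MyoF, Mphg). Compounds were added 1 h before stimulation and left for 24 h (MyoF 48 h; BT 72 h for soluble read-outs or 6 d for IgG). Biomarkers were read by ELISA, cytotoxicity by SRB, PBMC viability and proliferation by Alamar Blue. Each well value was divided by the mean of 8 DMSO control wells on the same plate and log10 transformed; duplicate blinded samples were tested at 4 concentrations.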

[2] = compound: FC(F)(F)C(F)(F)C(F)(F)C(F)(F)C(F)(F)C(F)(F)CC1CO1 [3-(Perfluorohexyl)-1,2-epoxypropane]; conditions: 2200 nM; in DMSO
Protocol: as §1

[3] = compound: O=C(O)C(F)(F)C(F)(F)C(F)(F)C(F)(F)C(F)(F)C(F)(F)C(F)(F)C(F)(F)C(F)(F)C(F)F [11-H-Perfluoroundecanoic acid]; conditions: 2200 nM; in DMSO
Protocol: as §1

[4] = compound: OCCC(F)(F)C(F)(F)C(F)(F)C(F)(F)C(F)(F)C(F)(F)F [6:2 Fluorotelomer alcohol]; conditions: 2200 nM; in DMSO
Protocol: as §1

[5] = compound: O=C(O)C(F)(F)C(F)(F)C(F)(F)C(F)(F)F [Perfluoropentanoic acid]; conditions: in DMSO
Protocol: as §1

[6] = compound: O=C(O)C(F)(F)C(F)(F)C(F)(F)OC(F)(F)F [Perfluoro(4-methoxybutanoic) acid]; conditions: 2200 nM; in DMSO
Protocol: as §1

[7] = compound: O=C(O)C(F)(F)C(F)(F)C(F)(F)C(F)(F)C(F)(F)C(F)(F)F [Perfluoroheptanoic acid]; conditions: in DMSO
Protocol: as §1

[8] = compound: CCN(CCO)S(=O)(=O)C(F)(F)C(F)(F)C(F)(F)C(F)(F)C(F)(F)C(F)(F)C(F)(F)C(F)(F)F [N-Ethyl-N-(2-hydroxyethyl)perfluorooctanesulfonamide]; conditions: in DMSO
Protocol: as §1

[9] = compound: CN(C(=O)C(F)(F)C(F)(F)C(F)(F)F)[Si](C)(C)C [N-Methyl-N-trimethylsilylheptafluorobutyramide]; conditions: 2200 nM; in DMSO
Protocol: as §1

[10] = compound: Cc1ccc(S(=O)(=O)OCC(F)(F)C(F)(F)C(F)(F)C(F)(F)C(F)(F)C(F)F)cc1 [1H,1H,7H-Perfluoroheptyl 4-methylbenzenesulfonate]; conditions: 2200 nM; in DMSO
Protocol: as §1

[11] = compound: O=S(=O)(O)CCC(F)(F)C(F)(F)C(F)(F)C(F)(F)C(F)(F)C(F)(F)C(F)(F)C(F)(F)F [8:2 Fluorotelomer sulfonic acid]; conditions: in DMSO
Protocol: as §1

[12] = compound: NCC(F)(F)C(F)(F)C(F)(F)C(F)(F)C(F)(F)C(F)(F)C(F)(F)F [1H,1H-Perfluorooctylamine]; conditions: 2200 nM; in DMSO
Protocol: as §1

[13] = compound: CC(C)(C)C(=O)CC(=O)C(F)(F)C(F)(F)C(F)(F)F [(Heptafluorobutanoyl)pivaloylmethane]; conditions: 2200 nM; in DMSO
Protocol: as §1

[14] = compound: NC(=O)C(F)(F)C(F)(F)C(F)(F)F [Heptafluorobutyramide]; conditions: 2200 nM; in DMSO
Protocol: as §1

[15] = compound: OCC(F)(F)C(F)(F)C(F)(F)F [1H,1H-Heptafluorobutanol]; conditions: 2200 nM; in DMSO
Protocol: as §1

[16] = compound: CCCCCCCCC(F)(F)C(F)(F)C(F)(F)C(F)(F)C(F)(F)C(F)(F)F [1-(Perfluorohexyl)octane]; conditions: in DMSO
Protocol: as §1

Row | Test System | level (log10) [1] | level (log10) [2] | level (log10) [3] | level (log10) [4] | level (log10) ([5]; 2200 nM) | level (log10) ([5]; 6700 nM) | level (log10) ([5]; 20000 nM) | level (log10) ([5]; 60000 nM) | level (log10) [6] | level (log10) ([7]; 2200 nM) | level (log10) ([7]; 6700 nM) | level (log10) ([7]; 20000 nM) | level (log10) ([7]; 60000 nM) | level (log10) ([8]; 2200 nM) | level (log10) ([8]; 6700 nM) | level (log10) ([8]; 20000 nM) | level (log10) [9] | level (log10) [10] | level (log10) ([11]; 2200 nM) | level (log10) ([11]; 6700 nM) | level (log10) ([11]; 20000 nM) | level (log10) ([11]; 60000 nM) | level (log10) [12] | level (log10) [13] | level (log10) [14] | level (log10) [15] | level (log10) ([16]; 740 nM) | level (log10) ([16]; 2200 nM)
1 | SAg:CD62E/E-Selectin | 0 ± 0.038 | 0.0005 ± 0.037 | -0.002 ± 0.047 | 0.0055 ± 0.0064 | -0.0035 ± 0.013 | 0.0005 ± 0.0064 | -0.012 ± 0.013 | 0.0195 ± 0.025 | 0.009 ± 0.0071 | 0.0135 ± 0.0021 | -0.025 ± 0.0085 | 0.011 | 0.008 ± 0.013 | -0.0035 ± 0.0021 | 0.0625 ± 0.013 | 0.079 ± 0.016 | -0.0005 ± 0.025 | 0.01 ± 0.014 | 0.018 ± 0.042 | 0.0085 ± 0.042 | 0.0465 ± 0.013 | 0.109 ± 0.0042 | 0.002 ± 0.062 | -0.013 ± 0.017 | -0.002 ± 0.013 | 0.0075 ± 0.035 | -0.003 ± 0.0085 | 0 ± 0.0071
2 | SAg:CD69 | 0.0325 ± 0.081 | 0.001 ± 0.0042 | 0.016 ± 0.041 | -0.001 ± 0.027 | 0.0095 ± 0.015 | 0.002 ± 0.016 | -0.0155 ± 0.028 | -0.0165 ± 0.033 | 0.031 ± 0.081 | -0.0155 ± 0.012 | -0.006 ± 0.0014 | -0.0145 ± 0.0021 | -0.008 ± 0.017 | 0.007 ± 0.021 | -0.043 ± 0.016 | -0.085 ± 0.04 | -0.002 ± 0.04 | 0.015 ± 0.047 | -0.012 ± 0.051 | -0.025 ± 0.057 | -0.0205 ± 0.04 | -0.043 ± 0.075 | -0.0125 ± 0.019 | -0.0085 ± 0.042 | 0.039 ± 0.0099 | -0.0115 ± 0.022 | -0.011 ± 0.033 | -0.025 ± 0.033
3 | SAg:CXCL8/IL-8 | 0.023 ± 0.031 | 0.0075 ± 0.022 | 0.029 ± 0.041 | 0.0235 ± 0.049 | 0.014 ± 0.035 | -0.012 ± 0.041 | -0.018 ± 0.044 | -0.013 ± 0.088 | 0.0295 ± 0.013 | 0.0335 ± 0.00071 | 0.008 ± 0.011 | 0.0115 ± 0.0078 | 0.0715 ± 0.043 | 0.038 ± 0.047 | 0.0095 ± 0.025 | -0.167 ± 0.03 | -0.006 ± 0.034 | 0.017 ± 0.04 | -0.013 ± 0.05 | -0.0075 ± 0.076 | -0.009 ± 0.014 | 0.071 ± 0.044 | 0.0005 ± 0.053 | -0.031 ± 0.16 | 0.027 ± 0.04 | 0.0405 ± 0.063 | 0.0065 ± 0.046 | 0.0045 ± 0.016
4 | SAg:CXCL9/MIG | 0.01 ± 0.0085 | 0.0045 ± 0.011 | -0.004 ± 0.011 | 0.0065 ± 0.00071 | 0.0065 ± 0.028 | -0.0115 ± 0.0078 | -0.014 ± 0.0099 | 0.004 ± 0.021 | 0.0095 ± 0.0064 | 0 ± 0.023 | -0.0125 ± 0.0078 | 0.0015 ± 0.0064 | 0.0105 ± 0.011 | -0.0015 ± 0.005 | -0.0135 ± 0.005 | -0.0075 ± 0.013 | 0.015 ± 0.021 | 0 ± 0.0099 | 0.01 ± 0.0057 | 0.0005 ± 0.018 | -0.008 ± 0.0028 | 0.001 ± 0.0057 | 0.0045 ± 0.0078 | 0.001 ± 0.0071 | -0.001 ± 0.0057 | 0.0105 ± 0.019 | -0.0075 ± 0.023 | -0.0045 ± 0.016
5 | SAg:PBMC Cytotoxicity | -0.0005 ± 0.0035 | 0.007 ± 0.082 | 0.0175 ± 0.049 | 0.021 ± 0.031 | -0.0045 ± 0.053 | -0.0105 ± 0.023 | -0.0135 ± 0.012 | 0.0145 ± 0.022 | -0.004 ± 0.0042 | 0.011 ± 0.034 | 0.0255 ± 0.0021 | 0.0095 ± 0.019 | 0.0195 ± 0.026 | 0.0035 ± 0.04 | -0.039 ± 0.052 | -0.0865 ± 0.042 | 0.026 ± 0.014 | 0.01 ± 0.045 | 0.017 ± 0.013 | -0.0125 ± 0.015 | 0 ± 0.0042 | 0.0075 ± 0.0021 | 0.024 ± 0.011 | -0.0015 ± 0.046 | -0.0155 ± 0.0035 | 0.02 ± 0.031 | 0.012 ± 0.045 | -0.001 ± 0.042
6 | SAg:Proliferation | 0.005 ± 0.024 | 0.031 ± 0.051 | -0.0295 ± 0.029 | 0.0055 ± 0.0021 | 0.0265 ± 0.056 | -0.0195 ± 0.04 | 0.0205 ± 0.046 | 0.0175 ± 0.08 | -0.0175 ± 0.015 | 0.014 ± 0.073 | 0.0045 ± 0.032 | 0.0275 ± 0.035 | 0.028 ± 0.034 | -0.0235 ± 0.032 | -0.098 ± 0.0057 | -0.335 ± 0.098 | 0.026 ± 0.085 | 0.0465 ± 0.039 | -0.032 ± 0.054 | -0.02 ± 0.054 | -0.0085 ± 0.011 | -0.0735 ± 0.0035 | -0.017 ± 0.041 | 0.023 ± 0.037 | -0.019 ± 0.0028 | 0.024 ± 0.034 | -0.0125 ± 0.13 | 0.036 ± 0.027
7 | SAg:SRB | -0.018 ± 0.0099 | -0.008 ± 0.011 | 0.011 ± 0.014 | 0 ± 0.014 | -0.008 ± 0.016 | -0.007 ± 0.0099 | -0.0035 ± 0.00071 | 0.0055 ± 0.015 | -0.02 ± 0.011 | -0.022 ± 0.0028 | -0.0155 ± 0.013 | 0.001 ± 0.011 | -0.0385 ± 0.016 | -0.0065 ± 0.0021 | -0.046 ± 0.0057 | -0.118 ± 0.024 | 0.008 ± 0.0085 | 0.001 ± 0.017 | 0.002 ± 0.023 | -0.0075 ± 0.0035 | -0.0095 ± 0.0035 | -0.0335 ± 0.011 | 0.01 ± 0.011 | 0.006 ± 0.0028 | -0.0145 ± 0.0035 | -0.0015 ± 0.0021 | 0.015 ± 0.0057 | 0.0075 ± 0.0064
8 | lMphg:CCL2/MCP-1 | 0.0205 ± 0.03 | 0.003 ± 0.0014 | -0.003 ± 0.021 | 0.004 ± 0.018 | 0.002 ± 0.0099 | 0.038 ± 0.0028 | 0.0155 ± 0.03 | 0.0015 ± 0.035 | 0.0175 ± 0.037 | -0.0205 ± 0.05 | -0.0365 ± 0.021 | -0.019 ± 0.0042 | 0.027 ± 0.023 | -0.0055 ± 0.033 | 0.007 ± 0.034 | 0.002 ± 0.023 | -0.0035 ± 0.016 | -0.007 ± 0.045 | -0.02 ± 0.0099 | 0.0075 ± 0.019 | -0.019 ± 0.016 | 0.0155 ± 0.00071 | -0.0215 ± 0.005 | -0.013 ± 0.02 | 0.009 ± 0.021 | -0.0055 ± 0.035 | 0.005 ± 0.031 | -0.011 ± 0.025
